Experimental data taken from publication PMC7026249.

By UniProt entry, the sequences of proteins in these tests, tags left out. Where a name states a change or a piece, a line headed by the entry shows the natural chain unless it says otherwise.
UniProt Q99020: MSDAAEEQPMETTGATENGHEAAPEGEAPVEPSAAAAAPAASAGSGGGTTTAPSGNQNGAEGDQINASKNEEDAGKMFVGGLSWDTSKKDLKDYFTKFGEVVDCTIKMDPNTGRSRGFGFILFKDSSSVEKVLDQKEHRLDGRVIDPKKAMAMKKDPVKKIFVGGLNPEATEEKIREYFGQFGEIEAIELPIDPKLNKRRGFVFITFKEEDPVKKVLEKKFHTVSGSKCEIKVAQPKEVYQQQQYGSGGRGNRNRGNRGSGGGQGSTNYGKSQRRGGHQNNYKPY

Biological target: hnRNPAB (CBF-A) (Mus musculus (C57BL/6 E16.5 cortex cDNA)) (UniProt Q99020)
Test: pull-down
Settings: Dig-RNA pull-down: 50 mM Tris-HCl pH 7.4, 150 mM NaCl, 0.5% NP-40, 2 mM RVC, 4 C 4 h, recombinant protein, protein details: C-terminal 3xFlag, label: digoxigenin, probe letters rebuilt from the primers and the genome

Row | Sequence | binding result | binding result (weaker than 455-908)
1 | GGAGAACUCCCCUGCCUCAAAGGAACGAGAUGACGAAUGAGGAUGCCUAAAACCUCCUCUGGCCUCCGAGAGUCCAUGGGUCCAAGCACCUGCACAUGACACAUGCAUAAGUAAUGAUCACCCAGUGCCCAAUGCUGAGCCUGUGGCUACGGAGAGAGAGAGCAGACAUAUCUUCUUGCCUCUGGCUACUAGACUGCCCUGAGAUCAGAGAGAUCCUGCACCAGGUGCCUGGGUUGUACAGAACCAGGGACGGAACGUAUGGUGUUGGGUGUGAUAGGUAAUCACUUAGCUACAUCACCCACAUCCCUGCCUGUCACUGUCUUUAAUAUACAUCAUAUCUUAAGCGGUACCUCUGUUUGGUCUCAAACUACAACUUAGCUGGAAGCCCACACCCUGCCAUUUCUCCCCAAGUGCCCGCACUACAAUCCCUCCCACGGGGUGUAGUUCCUCUUUCCUGGGUAAAUUAUUUUGCAGGUGGUGUCACU [LncKdm2b 909-1391] | no binding | 
2 | GGAGACUGCAUAACUUUUAAACUCCCGGGGCUGAAAUAAUAAUAUGGAGACACACGCACAGGUACAGGAAAUACAGCCAGUCCACAGCCUUUUCAGACUGCAGCUGACCGGAAGAAAGCCUUUGGUUCAUUCAUUCGGAUAGCCUCGGUAGUACAGCCCUGAAAUAGAAGUUGGGCUUUUAAAGAGAAAGGAAAAAAAGUCUCUACACUCGCUGAGAAGAGAUAAAUCGAUACACAGGAGGGAAUAGAGAAUCGGAUUCAGCGUCUCUAAUGCAGGCAGGCAAAAGGCUUCUGUGCCCUGUGGCUUGAAGUAAAAAAGAAACAAAACUCUUUAACAACUGUCCAGCCUGACUCUUGGAGAACGGCUUAAUGUUCUACUUAGCAUUCUGGGUGGUUUUUUGUUUUUCCAGUGUGCCUCUUCCUGUGUAAGGACUGGAAAGGACCCUGGAAACCACAG [LncKdm2b 455-908] | binds | 
3 | GGGACUUUUGGAGGGCUGAGUUGCAGGCGGCGGGCGCAUCCCAGAGAUGGCGGGGCAGGGAGGGAGGGAAAGAGAGGAGGGGGUGGGGAGGGAGGUGCAGAUUUGCACGGAUGGCCUCAGCGGGAGGCGCGGAAAUGCUAGCCAAGCCUGCUGGCGUGAAAGCCCCCGGGGCCUGGCACCCCCCAAAACGACCCCCCACCUCUGCCCCUGCCCCCUCUUGCUUGGGUUACGCAGGGCUGUCCCUCUCUUCCUUCACCCACCUUUCCUCAUUACCUAUGCUGGCGACCUAAAUUCAAAGUAUUUUGUAUGUGUGAUUUCUUUUUCUGUUUUGCUUUUCUACUGCAUGCCUGGGGGGAGGGGCCAGCCUGUCCAGACCCUUAUCCAUUUGCGAACCUGCCAUAUGGAGGAGGCAUCUGAGGGGCUCAGAAAGAAAUUACCUCAGCACUGUAUCUGUAC [LncKdm2b 1-454] |  | binds more weakly

Construct, isoform or probe ends are uncertain for at least one entry. Negatives hold for the conditions tested. The comparison behind a weaker result is the experiment's own reference, which may not be listed here.
